PubChem BioAssay AID1259277 | Sanger Institute | 2017
Test: 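Kinase knock-downs that strengthen cell killing by anchor cancer drugs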 (follow-up of hits). Cell system: LS123 human colorectal cancer cells. Reagents: single siRNA against human genes. Conditions: anchor drug BYL719 at 1 µM, cetuximab at 5 µg/ml or trametinib at 10 nM, or DMSO vehicle only, given one day after siRNA delivery. Detection: 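Replicate-averaged viability normalised to non-targeting pool 2 siRNA, and a synergy score contrasting observed combination viability with single siRNA and single drug effects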. Reading the numbers: synergy score with trametinib: higher = stronger synergistic killing with trametinib; synergy score with BYL719: higher = stronger synergistic killing with BYL719; synergy score with cetuximab: higher = stronger synergistic killing with cetuximab. Hit rule: 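An siRNA counts as active when its synergy score is above 0.10 with one or more anchor drugs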. Calls: active = synergy with at least one anchor drug; inactive = no synergy with any anchor drug.
In all, the deposit lists 160 reagents; this is an unselected part. Over the whole deposit, 48 (30%) are marked active. 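Calls refer to individual siRNAs; confirming a gene required at least two siRNAs in multiple cell lines.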 Reagents against one gene are numbered here. Not all columns of the deposit are shown. Not stated in the record: the amount of reagent, the time to read-out.

PIM1 (Pim-1 proto-oncogene, serine/threonine kinase) #1
- synergy score with trametinib: 0.00124
- synergy score with BYL719: -0.13
- synergy score with cetuximab: -0.038
- outcome: inactive

PIM1 (Pim-1 proto-oncogene, serine/threonine kinase) #2
- synergy score with trametinib: -0.207
- synergy score with BYL719: -0.0807
- synergy score with cetuximab: -0.291
- outcome: inactive

PIM1 (Pim-1 proto-oncogene, serine/threonine kinase) #3
- synergy score with trametinib: -0.18
- synergy score with BYL719: -0.207
- synergy score with cetuximab: -0.13
- outcome: inactive

PIM1 (Pim-1 proto-oncogene, serine/threonine kinase) #4
- synergy score with trametinib: 0.0757
- synergy score with BYL719: -0.0832
- synergy score with cetuximab: 0.0398
- outcome: inactive

GTF2H1 (general transcription factor IIH subunit 1) #1
- synergy score with trametinib: -0.134
- synergy score with BYL719: -0.111
- synergy score with cetuximab: -0.0491
- outcome: inactive

GTF2H1 (general transcription factor IIH subunit 1) #2
- synergy score with trametinib: -0.152
- synergy score with BYL719: -0.207
- synergy score with cetuximab: -0.242
- outcome: inactive

GTF2H1 (general transcription factor IIH subunit 1) #3
- synergy score with trametinib: -0.105
- synergy score with BYL719: -0.264
- synergy score with cetuximab: -0.209
- outcome: inactive

GTF2H1 (general transcription factor IIH subunit 1) #4
- synergy score with trametinib: -0.0708
- synergy score with BYL719: -0.283
- synergy score with cetuximab: -0.16
- outcome: inactive

NLK (nemo like kinase) #1
- synergy score with trametinib: -0.152
- synergy score with BYL719: -0.138
- synergy score with cetuximab: -0.0399
- outcome: inactive

NLK (nemo like kinase) #2
- synergy score with trametinib: -0.0176
- synergy score with BYL719: 0.0951
- synergy score with cetuximab: 0.123
- outcome: active

NLK (nemo like kinase) #3
- synergy score with trametinib: -0.115
- synergy score with BYL719: -0.212
- synergy score with cetuximab: -0.126
- outcome: inactive

NLK (nemo like kinase) #4
- synergy score with trametinib: 0.0495
- synergy score with BYL719: -0.0897
- synergy score with cetuximab: -0.118
- outcome: inactive

Active calls, of those listed so far:
NLK (nemo like kinase) #2
- synergy score with trametinib: -0.0176
- synergy score with BYL719: 0.0951
- synergy score with cetuximab: 0.123
- outcome: active
